Measurements reported in PubChem BioAssay AID1224830 (NIAID, 2016)
Aim: 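Regulators of TLR4 signalling towards TNF-alpha in macrophage-like cells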 (primary screen). System: human THP-1 monocytic leukaemia cells, TNF dual-luciferase reporter clone, PMA-differentiated to macrophage-like cells. Knock-down reagent: siRNA pool against human genes, 50 nM. Duration: LPS for 4 h, given about 3 days after siRNA transfection. Conditions: bacterial LPS (TLR4 ligand), 10 ng/ml. Read-out: 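TNF firefly reporter luminescence divided by renilla, normalised to the plate median, then turned into a robust z-score for each replicate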. Direction: TNF reporter robust z-score: higher = stronger TNF reporter response to LPS. Call rule: 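Each well counts as active if its z-score is over 2.8 or under -1.5; controls are left without a call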.
Here is one part, drawn at random, of about 18,000 deposited reagents. About 2,900 of all reagents (16%) count as active. 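Calls are made per well; low scores hint the gene aids the LPS response, high scores that it dampens it.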 Unmarked entries are inactive. Repeated entries: four replicate wells of each siRNA pool.

no.	Target gene	TNF reporter robust z-score
1	PSD (pleckstrin and Sec7 domain containing)	1.17
2	PSD (pleckstrin and Sec7 domain containing)	1.33
3	PSD (pleckstrin and Sec7 domain containing)	0.97
4	PSD (pleckstrin and Sec7 domain containing)	1.64
5	KIF5C (kinesin family member 5C)	0.71
6	KIF5C (kinesin family member 5C)	-0.56
7	KIF5C (kinesin family member 5C)	-0.85
8	KIF5C (kinesin family member 5C)	-0.18
9	PDLIM5 (PDZ and LIM domain 5)	-0.42
10	PDLIM5 (PDZ and LIM domain 5)	0.63
11	PDLIM5 (PDZ and LIM domain 5)	-1.09
12	PDLIM5 (PDZ and LIM domain 5)	0.58
13	TBC1D1 (TBC1 domain family member 1)	0.83
14	TBC1D1 (TBC1 domain family member 1)	1.99
15	TBC1D1 (TBC1 domain family member 1)	1.61
16	TBC1D1 (TBC1 domain family member 1)	1.91
17	SLC35E2A	-0.52
18	SLC35E2A	-0.9
19	SLC35E2A	-0.48
20	SLC35E2A	-0.23
21	CHCHD5 (coiled-coil-helix-coiled-coil-helix domain containing 5)	-0.64
22	CHCHD5 (coiled-coil-helix-coiled-coil-helix domain containing 5)	0
23	CHCHD5 (coiled-coil-helix-coiled-coil-helix domain containing 5)	-0.68
24	CHCHD5 (coiled-coil-helix-coiled-coil-helix domain containing 5)	-0.35
25	PLIN4 (perilipin 4)	-0.33
26	PLIN4 (perilipin 4)	-0.34
27	PLIN4 (perilipin 4)	0.05
28	PLIN4 (perilipin 4)	-0.17
29	POLR1H (RNA polymerase I subunit H)	-0.65
30	POLR1H (RNA polymerase I subunit H)	-0.81
31	POLR1H (RNA polymerase I subunit H)	-0.55
32	POLR1H (RNA polymerase I subunit H)	-0.02
33	SFXN1 (sideroflexin 1)	0.11
34	SFXN1 (sideroflexin 1)	-0.48
35	SFXN1 (sideroflexin 1)	-0.71
36	SFXN1 (sideroflexin 1)	-1.08
37	ATP6V0A4 (ATPase H+ transporting V0 subunit a4)	-1.08
38	ATP6V0A4 (ATPase H+ transporting V0 subunit a4)	-1.7 (active)
39	ATP6V0A4 (ATPase H+ transporting V0 subunit a4)	-1.51 (active)
40	ATP6V0A4 (ATPase H+ transporting V0 subunit a4)	-1.19
41	CNGB3 (cyclic nucleotide gated channel subunit beta 3)	-1.02
42	CNGB3 (cyclic nucleotide gated channel subunit beta 3)	-0.97
43	CNGB3 (cyclic nucleotide gated channel subunit beta 3)	0.06
44	CNGB3 (cyclic nucleotide gated channel subunit beta 3)	0.54
45	PHYHIP (phytanoyl-CoA 2-hydroxylase interacting protein)	0.37
46	PHYHIP (phytanoyl-CoA 2-hydroxylase interacting protein)	0.57
47	PHYHIP (phytanoyl-CoA 2-hydroxylase interacting protein)	0.2
48	PHYHIP (phytanoyl-CoA 2-hydroxylase interacting protein)	-0.07

Hits, of those listed so far:
Target gene	TNF reporter robust z-score
ATP6V0A4 (ATPase H+ transporting V0 subunit a4)	-1.7 (active)
ATP6V0A4 (ATPase H+ transporting V0 subunit a4)	-1.51 (active)
